Laboratory results: PubChem BioAssay AID686938 (Drosophila RNAi Screening Center, 2013)
Screen: 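Knock-downs reducing store-operated calcium influx in Drosophila cells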 (primary screen). Cell system: Drosophila S2R+ cells. Reagent: long dsRNA against Drosophila genes, about 0.25 µg dsRNA per well, roughly 10,000 cells. Time to read-out: 5 days of knock-down before the calcium assay. Conditions: thapsigargin (SERCA pump blocker) to empty calcium stores; entry signal taken 4 min after adding it. Measurement: 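Duplicate raw fluo-4 intensities per well from a plate reader, at rest and four minutes after thapsigargin emptied calcium stores; entry-to-rest ratio filled for only some wells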. Scale: calcium entry signal: higher = stronger calcium signal after store depletion; resting calcium signal: higher = higher resting calcium signal. Rule for the call: 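Called when the plate z-score of the entry-to-rest ratio, mean of duplicates, falls below −3; wells with low overall dye signal (Fmax z below −2) or more than five off-targets excluded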. Meaning of the calls: active = strongly reduced calcium entry; inactive = no strong reduction.
In all, the deposit lists about 23,000 reagents; below is a random part of those that have a named target and a result. Of all reagents, 75 (0.33%) got an active call. 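Raw plate signals without normalisation; calls rest on plate z-scores that were not deposited; ratio present for only 364 wells.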 A plus sign joins genes that one reagent is predicted to hit. Reagent sequences are not shown. The record does not give: the dose of the treatment.

target gene | amplicon | calcium entry signal, replicate 1 (fluorescence units) | calcium entry signal, replicate 2 (fluorescence units) | resting calcium signal, replicate 1 (fluorescence units) | resting calcium signal, replicate 2 (fluorescence units) | outcome
DEF8 | DRSC09840 | 4.46e7 | 3.89e7 | 3.10e7 | 1.63e7 | inactive
CG9692 | DRSC11091 | 3.61e7 | 6.23e7 | 1.87e7 | 2.34e7 | inactive
loqs | DRSC02997 | 3.35e7 | 2.16e7 | 1.57e7 | 1.07e7 | inactive
ppk17 | DRSC02252 | 3.40e7 | 2.15e7 | 1.49e7 | 1.13e7 | inactive
PCNA | DRSC07653 | 3.13e7 | 2.50e7 | 1.72e7 | 1.59e7 | inactive
sncRNA:430e + His2A:CG33859 + His2A:CG33817 + 37 more | DRSC21264 | 2.49e7 | 1.45e7 | 1.66e7 | 9.14e6 | inactive
NPF | DRSC17019 | 2.26e7 | 2.89e7 | 1.10e7 | 5.48e7 | inactive
Cul4 | DRSC07243 | 2.54e7 | 3.28e7 | 1.61e7 | 1.68e7 | inactive
CG12692 | DRSC17881 | 3.35e7 | 4.43e7 | 1.64e7 | 1.98e7 | inactive
cutlet | DRSC00284 | 3.37e7 | 2.90e7 | 1.71e7 | 1.40e7 | inactive
pigs | DRSC17472 | 3.58e7 | 3.59e7 | 1.74e7 | 1.88e7 | inactive
pigs | DRSC18334 | 2.83e7 | 4.33e7 | 1.28e7 | 1.83e7 | inactive
pigs | DRSC18335 | 2.45e7 | 3.52e7 | 1.16e7 | 1.61e7 | inactive
Snp | DRSC04524 | 5.70e7 | 5.50e7 | 2.70e7 | 2.28e7 | inactive
Snp | DRSC21538 | 3.42e7 | 3.40e7 | 1.90e7 | 1.53e7 | inactive
CCT8 | DRSC07130 | 2.69e7 | 2.44e7 | 1.60e7 | 1.36e7 | inactive
CG15345 (retired record) | DRSC18030 | 3.12e7 | 5.18e7 | 1.73e7 | 2.62e7 | inactive
CG15345 (retired record) | DRSC22712 | 3.04e7 | 2.98e7 | 1.69e7 | 1.36e7 | inactive
CG6495 | DRSC01993 | 5.63e7 | – | 2.55e7 | – | inactive
Cpr76Bb | DRSC11061 | 2.73e7 | 4.58e7 | 1.33e7 | 1.79e7 | inactive
Cpr76Bb | DRSC22870 | 1.71e7 | 3.30e7 | 9.87e6 | 1.43e7 | inactive
uex | DRSC20784 | 3.34e7 | 3.82e7 | 1.58e7 | 1.70e7 | inactive
uex | DRSC20786 | 3.59e7 | 3.41e7 | 1.62e7 | 1.71e7 | inactive
CG42374 + Mettl5 | DRSC11085 | 3.94e7 | 4.65e7 | 1.87e7 | 2.93e7 | inactive
CG17475 | DRSC15238 | 4.12e7 | 4.26e7 | 1.90e7 | 6.12e7 | inactive
Bx42 | DRSC17743 | 1.52e7 | 1.53e7 | 1.01e7 | 9.68e6 | inactive
lgs | DRSC17152 | 2.84e7 | 4.13e7 | 1.42e7 | 1.93e7 | inactive
LManIII | DRSC03221 | 2.58e7 | 4.18e7 | 1.20e7 | 1.78e7 | inactive
Fem-1 | DRSC07322 | 2.92e7 | 3.62e7 | 1.49e7 | 1.68e7 | inactive
CG30109 + CG30108 | DRSC05674 | 3.50e7 | 5.78e7 | 1.70e7 | 2.78e7 | inactive
CG14490 | DRSC06461 | 4.50e7 | 3.31e7 | 1.77e7 | 1.64e7 | inactive
Sidpn | DRSC02056 | 5.42e7 | – | 2.64e7 | – | inactive
CG30022 | DRSC22405 | 1.82e7 | 2.79e7 | 1.04e7 | 1.17e7 | inactive
Eig71Eb | DRSC11149 | 4.39e7 | 4.34e7 | 1.86e7 | 1.95e7 | inactive
CG12182 | DRSC08142 | 4.45e7 | 3.58e7 | 1.96e7 | 1.67e7 | inactive
CG1288 | DRSC12538 | 4.92e7 | 3.51e7 | 2.18e7 | 1.63e7 | inactive
CG9008 | DRSC01889 | 3.56e7 | – | 1.59e7 | – | inactive
CG13907 | DRSC08377 | 2.64e7 | 2.11e7 | 1.30e7 | 1.08e7 | inactive
asRNA:CR33945 | DRSC14080 | 4.17e7 | 4.32e7 | 1.99e7 | 1.64e7 | inactive
CG31832 | DRSC22067 | 3.42e7 | 4.16e7 | 1.65e7 | 2.24e7 | inactive
CG17362 | DRSC10267 | 5.65e7 | 4.59e7 | 2.15e7 | 1.80e7 | inactive
Spt3 | DRSC15465 | 2.64e7 | 3.20e7 | 1.40e7 | 1.61e7 | inactive
CG31633 | DRSC02275 | 2.87e7 | 3.12e7 | 1.45e7 | 1.47e7 | inactive
CG10910 | DRSC06007 | 4.44e7 | 5.04e7 | 1.92e7 | 2.16e7 | inactive
CG16711 | DRSC10220 | 3.27e7 | 4.72e7 | 1.60e7 | 2.07e7 | inactive
CG14785 | DRSC18604 | 2.77e7 | 3.31e7 | 1.34e7 | 1.62e7 | inactive
CG4896 | DRSC00671 | 4.49e7 | – | 2.51e7 | – | inactive
CG8237 | DRSC07119 | 3.59e7 | 3.89e7 | 1.81e7 | 1.89e7 | inactive
Sfp38D | DRSC01810 | 3.56e7 | 7.06e7 | 1.52e7 | 2.67e7 | inactive
dpr6 | DRSC09005 | 1.90e7 | 1.73e7 | 1.25e7 | 1.21e7 | active
dpr6 | DRSC10162 | 2.62e7 | 3.57e7 | 1.33e7 | 1.63e7 | inactive
dpr6 | DRSC10163 | 3.35e7 | 2.04e7 | 1.51e7 | 1.11e7 | inactive
nvy | DRSC04705 | 4.00e7 | 4.51e7 | 1.90e7 | 2.03e7 | inactive
Alg13 | DRSC14864 | 4.35e7 | 2.75e7 | 2.17e7 | 1.48e7 | inactive
CG12057 | DRSC17797 | 2.31e7 | 7.10e7 | 1.24e7 | 2.74e7 | inactive
CG10413 | DRSC02052 | 3.49e7 | – | 1.55e7 | – | inactive
CG11192 | DRSC06057 | 4.55e7 | 4.11e7 | 3.66e7 | 2.18e7 | inactive
CG32277 | DRSC08196 | 2.39e7 | 3.58e7 | 1.31e7 | 1.62e7 | inactive
CG10005 | DRSC14172 | 4.78e7 | 2.90e7 | 2.12e7 | 1.66e7 | inactive
bnk | DRSC16912 | 3.83e7 | 5.23e7 | 1.90e7 | 2.24e7 | inactive
CG16762 | DRSC08493 | 3.13e7 | 3.85e7 | 1.62e7 | 1.65e7 | inactive
insc | DRSC04695 | 5.28e7 | 5.23e7 | 2.57e7 | 2.37e7 | inactive
FucTA | DRSC10733 | 3.73e7 | 5.76e7 | 1.93e7 | 2.24e7 | inactive
CG5863 | DRSC15898 | 3.71e7 | 6.09e7 | 1.77e7 | 6.86e7 | inactive
CG1138 | DRSC12530 | 3.41e7 | 2.89e7 | 1.68e7 | 1.33e7 | inactive
MTA1-like | DRSC12382 | 4.47e7 | 3.42e7 | 2.15e7 | 1.59e7 | inactive
MTA1-like | DRSC22022 | 2.78e7 | 5.43e7 | 1.35e7 | 2.98e7 | inactive
cato | DRSC07589 | 4.28e7 | 4.36e7 | 1.82e7 | 1.93e7 | inactive
Lrpprc2 | DRSC18605 | 2.35e7 | 3.29e7 | 1.16e7 | 1.50e7 | inactive
Tango1 | DRSC02127 | 3.47e7 | – | 2.20e7 | – | inactive
Sf3b1 | DRSC00535 | 1.16e7 | 2.24e7 | 8.43e6 | 1.01e7 | inactive
side-IV + asRNA:CR17025 | DRSC14833 | 3.12e7 | 5.41e7 | 1.54e7 | 6.49e7 | inactive
side-IV + asRNA:CR17025 | DRSC15168 | 3.39e7 | 4.76e7 | 1.67e7 | 6.95e7 | inactive
CG15343 | DRSC18028 | 3.69e7 | 5.66e7 | 1.90e7 | 2.51e7 | inactive
sau | DRSC00694 | 3.80e7 | – | 1.68e7 | – | inactive

5 successive reagents from above, for reference:
target gene | amplicon | calcium entry signal, replicate 1 (fluorescence units) | calcium entry signal, replicate 2 (fluorescence units) | resting calcium signal, replicate 1 (fluorescence units) | resting calcium signal, replicate 2 (fluorescence units) | outcome
CG15345 (retired record) | DRSC18030 | 3.12e7 | 5.18e7 | 1.73e7 | 2.62e7 | inactive
CG15345 (retired record) | DRSC22712 | 3.04e7 | 2.98e7 | 1.69e7 | 1.36e7 | inactive
CG6495 | DRSC01993 | 5.63e7 | – | 2.55e7 | – | inactive
Cpr76Bb | DRSC11061 | 2.73e7 | 4.58e7 | 1.33e7 | 1.79e7 | inactive
Cpr76Bb | DRSC22870 | 1.71e7 | 3.30e7 | 9.87e6 | 1.43e7 | inactive
